# Reference: PubChem BioAssay AID504834 (National Center for Advancing Translational Sciences (NCATS), 2011)
# The whole screen tested about 320,000 compounds, of which about 22,000 (6.9%) were called active. This list was built around the results that the source calls inconclusive (neither active nor inactive); the mix of calls is not that of the screen. Calls follow the shape of the dose curve; as a rule, active = well fitted inhibition curve with a large enough effect; inconclusive = small, poorly fitted or top-dose-only effect, or another doubt; inactive = no such curve, though single readings can be large or run the other way. Potencies beside an inconclusive call are fits to weak or partial responses and may not hold up.
# Assay: Primary qHTS for delayed death inhibitors of the malarial parasite plastid, 96 hour incubation
# Conditions: P. falciparum luciferase reporter growth; series mostly up to 28.7 µM
# Procedure, shortened: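 Luminescence readout: decreased luciferase signal marks inhibited growth of reporter-expressing P. falciparum in infected red cells (2% hematocrit, 0.05% parasitemia final), exposed to compound two generations (96 h, 37 C, 5% CO2).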
# Potency is read from the fitted curve at half-maximal effect.
row,SMILES,Potency
1,CSc1ccccc1NC(=O)CN1CCCCC1C (stereo not drawn),"inconclusive: 1.04 µM [inhibitor, full curve, poor fit]"
2,O=C(NCc1ccccc1)Nc1cccn(Cc2ccccc2F)c1=O,inactive
3,COC(=O)CC1C(=O)NCCN1C(=O)CSc1nc2ccc([N+](=O)[O-])cc2s1 (stereo not drawn),"inconclusive: 11.7 µM [inhibitor, single point]"
4,C=CCOC(=O)/C(=C/c1cccc2ccccc12)NC(=O)c1ccccc1,"inconclusive: 10.4 µM [inhibitor, partial curve, poor fit]"
5,CCN(Cc1ccncc1)C(=O)c1cc(COc2ccc(OC)cc2Cl)on1,"inconclusive: 2.33 µM [inhibitor, full curve, poor fit]"
6,Clc1ccc(OCCN2CCCCC2)c(Cl)c1,"inconclusive: 18.5 µM [inhibitor, single point]"
7,O=C(Cc1ccccc1)N1CCCC(c2nc(-c3cccs3)no2)C1 (stereo not drawn),"inconclusive: 18.5 µM [inhibitor, single point]"
8,CN1/C(=C\C(=O)CN2C(=O)NC3(CCCCCC3)C2=O)C(C)(C)c2ccccc21,"inconclusive: 3.7 µM [inhibitor, partial curve, poor fit]"
9,Cc1ccc(S(=O)(=O)N2CCN(Cc3nnc(-c4c(-c5ccccc5)noc4C)o3)CC2)cc1,"inconclusive: 9.28 µM [inhibitor, partial curve, poor fit]"
10,O=C(N/N=C/c1ccc2c(c1)OCO2)c1ccn(Cc2ccc(Cl)cc2)n1,"inconclusive: 10.4 µM [inhibitor, single point]"
11,COc1cccc(C(=O)C2CCCN(Cc3ccc(OC)c(Cn4cncn4)c3)C2)c1 (stereo not drawn),"inconclusive: 13.1 µM [inhibitor, single point]"
12,Cc1cccc(NC(=O)CN2C(=O)NC(C)(c3ccc4ccccc4c3)C2=O)n1 (stereo not drawn),"inconclusive: 10.4 µM [inhibitor, partial curve, poor fit]"
13,Cc1ccccc1NC(=O)/C(C#N)=C/c1ccc(-c2ccc(Cl)c(C(=O)O)c2)o1,inactive
15,CCN(CC)CCN1C2=C(C(=O)CC(C)(C)C2)C(c2cccc(F)c2)C2=C1CC(C)(C)CC2=O,"inconclusive: 9.28 µM [inhibitor, single point]"
16,COc1cccc(NS(=O)(=O)c2c(C(=O)N3CCCCCC3)c(C)n(C)c2C)c1,inactive
17,COc1cc(C(=O)OCC(=O)Nc2cc(C)on2)cc(OC)c1OC,"inconclusive: 0.0029 µM [inhibitor, full curve, poor fit]"
18,CN1CCN(C(=S)NCCc2ccccc2)CC1,inactive
19,Cc1ccsc1C1NC(=O)c2c(sc3c2CCN(C)C3)N1 (stereo not drawn),"inconclusive: 18.5 µM [inhibitor, single point]"
20,Cc1ccc(NCC(=O)N/N=C\C(Br)=C\c2ccccc2)cc1,inactive
21,CC(/C=C1\SC(=S)N(NC(=O)c2ccc(C)cc2)C1=O)=C\c1ccccc1,inactive
22,CCC(C)N(C(=O)COC(=O)Cc1n[nH]c(=O)c2ccccc12)C1CCS(=O)(=O)C1 (stereo not drawn),inactive

row,SMILES,Potency
1,Cc1onc(-c2ccccc2Cl)c1C(=O)Oc1cc(N)n(S(=O)(=O)c2ccc(F)cc2)n1,"inconclusive: 0.522 µM [inhibitor, full curve, poor fit]"
2,Cc1cc(C)c(S(=O)(=O)N2CCCCC2CCNC(=O)C(=O)NCCN2CCOCC2)c(C)c1 (stereo not drawn),inactive
3,Cc1ccccc1NS(=O)(=O)c1cc2c3c(c1)C(C)C(=O)N3CCC2 (stereo not drawn),"inconclusive: 13.1 µM [inhibitor, single point]"
4,Cc1c(Cl)c([N+](=O)[O-])nn1Cc1ccc(C(=O)Nc2ccc(Cl)cn2)o1,"inconclusive: 5.22 µM [inhibitor, partial curve]"
5,CC(=O)c1ccc(NC(=O)CSc2nnc(Cn3cnc4ccccc43)o2)cc1,"inconclusive: 18.5 µM [inhibitor, single point]"
6,Clc1ccc(-c2nc(N3CCOCC3)nc3ccccc23)cc1,inactive
7,Cc1[nH]nc2c1C1(CCOCC1)C(C#N)=C(N)O2,"inconclusive: 11.7 µM [inhibitor, single point]"
8,CC1CCN(C(=O)CN(Cc2ccc(F)cc2)S(C)(=O)=O)CC1,inactive
9,COc1ccc(C2C(C(=O)c3cc4cccc(OC)c4o3)=C(O)C(=O)N2CCCN(C)C)cc1OC (stereo not drawn),inactive
10,S=C(Nc1cccc(Cl)c1)NC1CC2CCCC(C1)N2C1CCCC1 (stereo not drawn),"inconclusive: 0.233 µM [inhibitor, partial curve, poor fit]"
11,CCCCOCCCN1CC(=O)N2[C@@H](Cc3c([nH]c4ccccc34)C2(C)C)C1=O,active: 9.28 µM
12,CN(C)c1ccc(C2NC(=O)c3ccccc3N2)cc1 (stereo not drawn),inactive
13,COc1cc(NC(=O)Cn2cnc(S(=O)(=O)N3CCC(C)CC3)c2)cc(OC)c1OC,"inconclusive: 18.5 µM [inhibitor, single point]"
14,COc1ccc(/C=C(/NC(=O)c2ccc(OC)cc2)C(=O)NCCc2c[nH]c3ccccc23)cc1,"inconclusive: 13.1 µM [inhibitor, partial curve, poor fit]"
15,O=C(Cc1ccccc1Cl)Nc1cccc(S(=O)(=O)N2CCOCC2)c1,"inconclusive: 18.5 µM [inhibitor, single point]"
16,Cc1ccc(NC(=O)CCCn2c(=S)[nH]c3ccsc3c2=O)cc1C,"inconclusive: 1.47 µM [inhibitor, partial curve]"
17,CC(C)c1nc(SCC(=O)N2CCCc3ccccc32)c2c(=O)n(C)c(=O)n(C)c2n1,"inconclusive: 18.5 µM [inhibitor, single point]"
18,CC(=O)n1ccnc1,inactive
19,COc1ccccc1/C=C/CN1CCN(Cc2ccc(C)o2)C(CCO)C1 (stereo not drawn),"inconclusive: 13.1 µM [inhibitor, partial curve, poor fit]"
21,COc1ccc(NC(C)=O)cc1NC(C)C(=O)Nc1cccc2ccccc12 (stereo not drawn),"inconclusive: 16.5 µM [inhibitor, partial curve, poor fit]"

# Ordered by molar mass (rising): some entries from above
row,SMILES,Potency
6,Clc1ccc(-c2nc(N3CCOCC3)nc3ccccc23)cc1,inactive
4,Cc1c(Cl)c([N+](=O)[O-])nn1Cc1ccc(C(=O)Nc2ccc(Cl)cn2)o1,"inconclusive: 5.22 µM [inhibitor, partial curve]"
2,Cc1cc(C)c(S(=O)(=O)N2CCCCC2CCNC(=O)C(=O)NCCN2CCOCC2)c(C)c1 (stereo not drawn),inactive
